# Reference: article PMC4686654
# Chains of the proteins cited; added tags and fusions are not shown. Residues count along the entry.
# UniProt Q13464, residues 947-1015: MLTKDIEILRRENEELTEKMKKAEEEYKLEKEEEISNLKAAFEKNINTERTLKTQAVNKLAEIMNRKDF
# UniProt P61586, residues 1-181: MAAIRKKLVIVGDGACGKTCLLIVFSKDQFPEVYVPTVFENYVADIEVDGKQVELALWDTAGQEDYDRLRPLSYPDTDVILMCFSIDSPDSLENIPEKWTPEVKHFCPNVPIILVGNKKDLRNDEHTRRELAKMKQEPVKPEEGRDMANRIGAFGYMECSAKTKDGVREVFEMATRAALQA
# These are yes or no findings as the source states them, for the method shown.
# Biological target: RBD fragment of human ROCK1 (947-1,015) (human) (UniProt Q13464)
# Experiment: SEC; Superose 6; 10-fold molar excess of RhoA-GMPPNP over ROCK; 20 mM Tris pH 7.5, 1 mM TCEP, 4 mM MgCl2, with or without 100 mM NaCl; both purified
substance,measurement,value
"RhoA 1-181, loaded with GMPPNP (from UniProt P61586 1-181) (domain or fragment)",binding,no binding (tested: 10-fold molar excess of RhoA-GMPPNP)
